Assay [1] has as its target V5-tagged DRP1 (mouse pEF6-DRP1) (mouse) (UniProt Q8K1M6). As to the kind of experiment: co-IP; HEK293T cells co-transfected for 24 h, lysed in RIPA buffer with benzonase; IP with anti-DRP1 antibody, protein G Dynabeads; immunoblot with anti-V5. On the technique in general: A western blot detects proteins with antibodies after separation by electrophoresis.
Assay [2] has as its target dynamin-related protein 1 (DRP1), endogenous in THP1 cells (human (endogenous in THP1)) (UniProt O00429). In words: co-IP; PMA-differentiated THP1 cells cross-linked with 1% formaldehyde for 10 min, lysed in RIPA buffer; IP with anti-DRP1 or isotype control antibody, protein G Dynabeads; immunoblot of endogenous proteins.

The chains behind the UniProt entries cited, without tags or fusion partners. Where a name states a change or a piece, a line headed by the entry shows the natural chain unless it says otherwise. A line that says so, or that is headed by a name, gives the form on record, which may keep a tag or linker.
V5-tagged DRP1 (mouse pEF6-DRP1) (Q8K1M6, form named): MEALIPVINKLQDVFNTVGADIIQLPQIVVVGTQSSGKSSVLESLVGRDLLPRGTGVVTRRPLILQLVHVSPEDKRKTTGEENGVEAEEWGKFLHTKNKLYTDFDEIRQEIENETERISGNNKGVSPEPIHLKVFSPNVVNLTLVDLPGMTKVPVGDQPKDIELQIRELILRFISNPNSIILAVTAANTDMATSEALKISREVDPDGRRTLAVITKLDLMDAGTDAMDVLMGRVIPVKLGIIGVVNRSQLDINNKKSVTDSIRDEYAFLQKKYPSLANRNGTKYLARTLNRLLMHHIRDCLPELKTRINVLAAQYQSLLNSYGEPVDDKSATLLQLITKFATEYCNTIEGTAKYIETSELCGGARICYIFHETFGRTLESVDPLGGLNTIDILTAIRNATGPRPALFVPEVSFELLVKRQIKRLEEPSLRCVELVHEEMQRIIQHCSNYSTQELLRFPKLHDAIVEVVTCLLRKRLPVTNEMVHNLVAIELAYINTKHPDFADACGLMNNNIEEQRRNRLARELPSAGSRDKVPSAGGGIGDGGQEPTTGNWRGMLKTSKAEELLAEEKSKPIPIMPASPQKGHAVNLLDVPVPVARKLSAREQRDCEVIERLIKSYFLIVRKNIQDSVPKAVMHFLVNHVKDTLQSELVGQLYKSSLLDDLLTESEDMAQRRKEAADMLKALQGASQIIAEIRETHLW
UniProt O00429: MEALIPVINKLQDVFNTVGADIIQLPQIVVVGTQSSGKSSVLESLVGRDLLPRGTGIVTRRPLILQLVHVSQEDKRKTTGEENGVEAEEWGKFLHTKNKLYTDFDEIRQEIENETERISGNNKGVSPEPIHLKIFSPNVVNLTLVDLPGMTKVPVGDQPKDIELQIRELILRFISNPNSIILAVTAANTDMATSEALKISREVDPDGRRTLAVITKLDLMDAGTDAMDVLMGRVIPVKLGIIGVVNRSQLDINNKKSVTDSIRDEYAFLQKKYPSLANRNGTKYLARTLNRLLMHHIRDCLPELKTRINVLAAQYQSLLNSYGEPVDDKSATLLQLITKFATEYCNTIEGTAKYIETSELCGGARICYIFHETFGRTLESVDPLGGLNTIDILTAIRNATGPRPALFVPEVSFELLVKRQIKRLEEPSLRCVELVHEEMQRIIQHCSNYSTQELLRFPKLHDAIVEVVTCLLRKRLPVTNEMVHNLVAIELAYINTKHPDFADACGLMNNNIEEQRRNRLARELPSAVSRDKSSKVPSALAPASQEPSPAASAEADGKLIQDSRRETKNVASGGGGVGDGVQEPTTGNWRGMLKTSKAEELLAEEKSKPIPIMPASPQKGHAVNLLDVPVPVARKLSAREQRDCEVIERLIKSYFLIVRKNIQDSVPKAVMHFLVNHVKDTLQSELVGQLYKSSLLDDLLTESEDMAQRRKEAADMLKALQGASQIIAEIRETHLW

No constants are given. Whether binding was seen depends on the method and setting. Binding seen in cells or lysates may run through a third protein. Some binding calls cover weakened binding; strength is not graded here. Where a sequence is shown, tags or fusion partners need not be part of it.

B1: HDAC6-V5 (pEF6-HDAC6-V5) (enzyme, UniProt Q9Z2V5 1-1149)
chain: MTSTGQDSSTRQRKSRHNPQSPLQESSATLKRGGKKCAVPHSSPNLAEVKKKGKMKKLSQPAEEDLVVGLQGLDLNPETRVPVGTGLVFDEQLNDFHCLWDDSFPESPERLHAIREQLILEGLLGRCVSFQARFAEKEELMLVHSLEYIDLMETTQYMNEGELRVLAETYDSVYLHPNSYSCACLATGSVLRLVDALMGAEIRNGMAVIRPPGHHAQHNLMDGYCMFNHLAVAARYAQKKHRIQRVLIVDWDVHHGQGTQFIFDQDPSVLYFSIHRYEHGRFWPHLKASNWSTIGFGQGQGYTINVPWNQTGMRDADYIAAFLHILLPVASEFQPQLVLVAAGFDALHGDPKGEMAATPAGFAHLTHLLMGLAGGKLILSLEGGYNLRALAKGVSASLHTLLGDPCPMLESCVVPCASAQTSIYCTLEALEPFWEVLERSVETQEEDEVEEAVLEEEEEEGGWEATALPMDTWPLLQNRTGLVYDEKMMSHCNLWDNHHPETPQRILRIMCHLEEVGLAARCLILPARPALDSELLTCHSAEYVEHLRTTEKMKTRDLHREGANFDSIYICPSTFACAKLATGAACRLVEAVLSGEVLNGIAVVRPPGHHAEPNAACGFCFFNSVAVAARHAQIIAGRALRILIVDWDVHHGNGTQHIFEDDPSVLYVSLHRYDRGTFFPMGDEGASSQVGRDAGIGFTVNVPWNGPRMGDADYLAAWHRLVLPIAYEFNPELVLISAGFDAAQGDPLGGCQVTPEGYAHLTHLLMGLAGGRIILILEGGYNLASISESMAACTHSLLGDPPPQLTLLRPPQSGALVSISEVIQVHRKYWRSLRLMKMEDKEECSSSRLVIKKLPPTASPVSAKEMTTPKGKVPEESVRKTIAALPGKESTLGQAKSKMAKAVLAQGQSSEQAAKGTTLDLATSKETVGGATTDLWASAAAPENFPNQTTSVEALGETEPTPPASHTNKQTTGASPLQGVTAQQSLQLGVLSTLELSREAEEAHDSEEGLLGEAAGGQDMNSLMLTQGFGDFNTQDVFYAVTPLSWCPHLMAVCPIPAAGLDVSQPCKTCGTVQENWVCLTCYQVYCSRYVNAHMVCHHEASEHPLVLSCVDLSTWCYVCQAYVHHEDLQDVKNAAHQNKFGEDMPHSH
For B1, the binding result in assay [1] was “binds”.

B2: histone deacetylase 7 (HDAC7), endogenous in THP1 cells (enzyme, UniProt Q8WUI4 1-952)
chain: MDLRVGQRPPVEPPPEPTLLALQRPQRLHHHLFLAGLQQQRSVEPMRLSMDTPMPELQVGPQEQELRQLLHKDKSKRSAVASSVVKQKLAEVILKKQQAALERTVHPNSPGIPYRTLEPLETEGATRSMLSSFLPPVPSLPSDPPEHFPLRKTVSEPNLKLRYKPKKSLERRKNPLLRKESAPPSLRRRPAETLGDSSPSSSSTPASGCSSPNDSEHGPNPILGSEALLGQRLRLQETSVAPFALPTVSLLPAITLGLPAPARADSDRRTHPTLGPRGPILGSPHTPLFLPHGLEPEAGGTLPSRLQPILLLDPSGSHAPLLTVPGLGPLPFHFAQSLMTTERLSGSGLHWPLSRTRSEPLPPSATAPPPPGPMQPRLEQLKTHVQVIKRSAKPSEKPRLRQIPSAEDLETDGGGPGQVVDDGLEHRELGHGQPEARGPAPLQQHPQVLLWEQQRLAGRLPRGSTGDTVLLPLAQGGHRPLSRAQSSPAAPASLSAPEPASQARVLSSSETPARTLPFTTGLIYDSVMLKHQCSCGDNSRHPEHAGRIQSIWSRLQERGLRSQCECLRGRKASLEELQSVHSERHVLLYGTNPLSRLKLDNGKLAGLLAQRMFVMLPCGGVGVDTDTIWNELHSSNAARWAAGSVTDLAFKVASRELKNGFAVVRPPGHHADHSTAMGFCFFNSVAIACRQLQQQSKASKILIVDWDVHHGNGTQQTFYQDPSVLYISLHRHDDGNFFPGSGAVDEVGAGSGEGFNVNVAWAGGLDPPMGDPEYLAAFRIVVMPIAREFSPDLVLVSAGFDAAEGHPAPLGGYHVSAKCFGYMTQQLMNLAGGAVVLALEGGHDLTAICDASEACVAALLGNRVDPLSEEGWKQKPNLNAIRSLEAVIRVHSKYWGCMQRLASCPDSWVPRVPGADKEEVEAVTALASLSVGILAEDRPSEQLVEEEEPMNL
B2: the binding result in assay [2] is given as “binds”.

The values above are taken from article PMC12539210.
